These are yes or no findings as the source states them, for the method shown. Some results given as binding are weak or reduced against the parent protein; the word gives no strength.
Key:
[1] = molecular target: Sos-FOXC2 hybrid protein (human full-length FOXC2, amino acids 1-501, fused to hSos from the pSos vector) (human) (UniProt Q07889); experiment: SRS (CytoTrap) yeast two-hybrid; interaction strength relative to the MafB-MafB interaction (++++)
[2] = molecular target: Sos-FOXC2 hybrid protein (human full-length FOXC2, amino acids 1-501, fused to hSos from the pSos vector) (human) (UniProt Q07889); experiment: SRS (CytoTrap) yeast two-hybrid, compared with the MafB-MafB interaction

Protein sequences, listed by entry. Tags and fused reporters are not part of them. Lines headed by an entry give the natural chain unless they say otherwise; changes in a name come on top.
UniProt Q00610: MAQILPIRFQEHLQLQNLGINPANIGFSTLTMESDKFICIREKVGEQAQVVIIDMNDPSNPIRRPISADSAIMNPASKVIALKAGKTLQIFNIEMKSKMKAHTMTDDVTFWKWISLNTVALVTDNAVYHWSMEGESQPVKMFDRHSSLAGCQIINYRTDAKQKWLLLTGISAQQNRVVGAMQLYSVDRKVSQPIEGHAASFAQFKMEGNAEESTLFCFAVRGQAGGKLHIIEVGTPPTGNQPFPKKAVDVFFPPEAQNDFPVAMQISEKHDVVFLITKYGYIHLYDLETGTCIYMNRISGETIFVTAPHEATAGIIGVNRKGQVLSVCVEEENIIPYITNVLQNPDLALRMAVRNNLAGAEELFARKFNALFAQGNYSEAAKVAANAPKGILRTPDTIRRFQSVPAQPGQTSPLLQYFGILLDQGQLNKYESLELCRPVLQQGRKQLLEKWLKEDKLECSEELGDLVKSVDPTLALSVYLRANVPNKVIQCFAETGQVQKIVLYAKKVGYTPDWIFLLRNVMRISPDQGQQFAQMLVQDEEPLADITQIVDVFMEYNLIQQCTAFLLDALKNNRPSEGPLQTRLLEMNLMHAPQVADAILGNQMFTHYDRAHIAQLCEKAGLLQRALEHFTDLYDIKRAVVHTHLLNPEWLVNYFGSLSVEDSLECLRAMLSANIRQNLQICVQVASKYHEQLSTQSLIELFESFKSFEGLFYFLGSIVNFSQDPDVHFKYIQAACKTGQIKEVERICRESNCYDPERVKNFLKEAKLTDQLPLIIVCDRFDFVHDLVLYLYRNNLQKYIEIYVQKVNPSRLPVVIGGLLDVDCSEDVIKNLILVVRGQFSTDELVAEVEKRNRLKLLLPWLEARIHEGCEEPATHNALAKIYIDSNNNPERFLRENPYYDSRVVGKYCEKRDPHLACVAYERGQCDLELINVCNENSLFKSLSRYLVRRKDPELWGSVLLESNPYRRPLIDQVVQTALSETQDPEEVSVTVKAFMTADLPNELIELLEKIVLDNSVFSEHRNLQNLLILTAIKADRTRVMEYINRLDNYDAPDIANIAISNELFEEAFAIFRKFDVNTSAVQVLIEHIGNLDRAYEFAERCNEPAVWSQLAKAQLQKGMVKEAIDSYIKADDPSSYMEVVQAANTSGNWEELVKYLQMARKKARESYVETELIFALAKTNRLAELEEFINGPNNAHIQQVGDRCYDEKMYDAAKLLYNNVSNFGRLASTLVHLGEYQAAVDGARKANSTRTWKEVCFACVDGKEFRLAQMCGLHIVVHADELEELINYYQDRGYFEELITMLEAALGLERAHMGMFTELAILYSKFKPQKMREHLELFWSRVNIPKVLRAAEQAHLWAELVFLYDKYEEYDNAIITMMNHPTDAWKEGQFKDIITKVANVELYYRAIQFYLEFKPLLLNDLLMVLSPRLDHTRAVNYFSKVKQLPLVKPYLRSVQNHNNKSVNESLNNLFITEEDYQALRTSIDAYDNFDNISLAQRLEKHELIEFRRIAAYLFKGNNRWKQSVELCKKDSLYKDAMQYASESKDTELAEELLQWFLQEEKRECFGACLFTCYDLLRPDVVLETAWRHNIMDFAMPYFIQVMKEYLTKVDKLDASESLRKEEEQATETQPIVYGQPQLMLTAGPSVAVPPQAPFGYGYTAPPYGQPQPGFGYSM
UniProt O94818: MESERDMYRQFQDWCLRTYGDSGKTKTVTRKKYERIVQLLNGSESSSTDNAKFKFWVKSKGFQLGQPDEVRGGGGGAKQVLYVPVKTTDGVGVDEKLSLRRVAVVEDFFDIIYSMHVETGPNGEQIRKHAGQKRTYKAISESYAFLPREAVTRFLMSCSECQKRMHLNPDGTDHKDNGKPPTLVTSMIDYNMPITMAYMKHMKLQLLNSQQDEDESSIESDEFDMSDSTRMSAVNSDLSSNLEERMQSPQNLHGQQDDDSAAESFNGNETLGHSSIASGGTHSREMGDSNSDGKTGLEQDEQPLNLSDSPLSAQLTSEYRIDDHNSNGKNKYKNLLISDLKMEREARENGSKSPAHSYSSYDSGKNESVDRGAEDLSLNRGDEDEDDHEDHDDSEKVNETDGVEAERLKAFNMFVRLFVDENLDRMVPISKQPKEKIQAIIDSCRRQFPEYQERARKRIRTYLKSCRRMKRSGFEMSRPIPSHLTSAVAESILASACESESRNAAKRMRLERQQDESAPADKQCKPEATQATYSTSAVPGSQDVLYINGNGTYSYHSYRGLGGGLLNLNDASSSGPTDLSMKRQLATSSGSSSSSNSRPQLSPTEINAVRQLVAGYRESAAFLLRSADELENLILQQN
UniProt A2Q0Z1: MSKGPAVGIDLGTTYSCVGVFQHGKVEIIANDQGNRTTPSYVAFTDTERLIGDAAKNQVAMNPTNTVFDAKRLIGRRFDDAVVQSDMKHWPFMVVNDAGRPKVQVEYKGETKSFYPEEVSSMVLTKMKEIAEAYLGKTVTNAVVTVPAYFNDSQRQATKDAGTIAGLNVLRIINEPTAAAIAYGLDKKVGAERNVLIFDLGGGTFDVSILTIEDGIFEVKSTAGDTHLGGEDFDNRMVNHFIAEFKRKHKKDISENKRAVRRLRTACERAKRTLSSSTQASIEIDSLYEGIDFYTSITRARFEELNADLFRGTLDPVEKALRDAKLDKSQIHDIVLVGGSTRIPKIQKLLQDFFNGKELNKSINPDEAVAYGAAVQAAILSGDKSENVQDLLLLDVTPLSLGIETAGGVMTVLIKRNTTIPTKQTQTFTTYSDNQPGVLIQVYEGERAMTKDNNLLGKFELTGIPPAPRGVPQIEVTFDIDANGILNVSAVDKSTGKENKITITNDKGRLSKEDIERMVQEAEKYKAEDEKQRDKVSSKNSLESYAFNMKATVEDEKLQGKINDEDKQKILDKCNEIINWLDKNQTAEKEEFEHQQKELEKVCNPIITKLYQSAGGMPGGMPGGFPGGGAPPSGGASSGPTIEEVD

binding [1] | binding [2] | Substance
binds | binds | CLH1 (human clathrin heavy chain protein; prey clones, fused to the src myristylation signal of pMyr) (from UniProt Q00610 853-1675)
binds | binds | NOLP (nucleolar-localized protein; prey clone starting at D145, fused to the src myristylation signal of pMyr) (from UniProt O94818 259-638)
binds | binds | Heat Shock Cognate Protein-71 (HSC71; prey clones, fused to the src myristylation signal of pMyr) (from UniProt A2Q0Z1 127-646)
